Results on 1 substance are retold here after paper PMC8672067, “Inhibitors of the Bub1 spindle assembly checkpoint kinase: synthesis of BAY-320 and comparison with 2OH-BNPP1” (Royal Society Open Science, 2021).

Chains of the proteins cited; added tags and fusions are not shown.
UniProt O43684: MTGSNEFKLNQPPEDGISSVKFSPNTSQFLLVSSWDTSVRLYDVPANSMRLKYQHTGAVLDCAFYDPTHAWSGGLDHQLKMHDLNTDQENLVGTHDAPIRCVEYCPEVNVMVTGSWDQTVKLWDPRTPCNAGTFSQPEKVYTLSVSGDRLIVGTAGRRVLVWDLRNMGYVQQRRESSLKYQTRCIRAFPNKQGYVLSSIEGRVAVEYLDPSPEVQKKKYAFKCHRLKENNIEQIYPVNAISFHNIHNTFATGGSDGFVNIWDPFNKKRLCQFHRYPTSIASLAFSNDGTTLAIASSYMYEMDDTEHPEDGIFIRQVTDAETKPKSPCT

Results are given in words; binding and its absence hold for the method and conditions named. Binding seen in cells or lysates may run through a third protein. Some binding calls cover weakened binding; strength is not graded here. For some assays here: Sequences can lack the tags named with a protein.

Experiment [1] addresses GFP-Bub1 (wild-type, full-length Bub1 with an N-terminal GFP tag) (human) (UniProt O43683). The experiment is described as follows: co-IP; GFP-Bub1 captured from lysate of tetracycline-induced, nocodazole-treated (16-18 h) HEK-293 cells with purified GST-GFP-binder on glutathione sepharose beads, 4°C, at least 3 h; lysis buffer 0.1% Triton X-100, 100 mM NaCl, 10 mM Tris pH 7.4; beads washed five times; immunoblot for Bub3. A general note: In western blotting, separated proteins are transferred to a membrane and probed.

For experiment [2], the target named is T1, GFP-Bub1 K821R (catalytically inactive full-length Bub1 with an N-terminal GFP tag) (human) (UniProt O43683).
T1 sequence: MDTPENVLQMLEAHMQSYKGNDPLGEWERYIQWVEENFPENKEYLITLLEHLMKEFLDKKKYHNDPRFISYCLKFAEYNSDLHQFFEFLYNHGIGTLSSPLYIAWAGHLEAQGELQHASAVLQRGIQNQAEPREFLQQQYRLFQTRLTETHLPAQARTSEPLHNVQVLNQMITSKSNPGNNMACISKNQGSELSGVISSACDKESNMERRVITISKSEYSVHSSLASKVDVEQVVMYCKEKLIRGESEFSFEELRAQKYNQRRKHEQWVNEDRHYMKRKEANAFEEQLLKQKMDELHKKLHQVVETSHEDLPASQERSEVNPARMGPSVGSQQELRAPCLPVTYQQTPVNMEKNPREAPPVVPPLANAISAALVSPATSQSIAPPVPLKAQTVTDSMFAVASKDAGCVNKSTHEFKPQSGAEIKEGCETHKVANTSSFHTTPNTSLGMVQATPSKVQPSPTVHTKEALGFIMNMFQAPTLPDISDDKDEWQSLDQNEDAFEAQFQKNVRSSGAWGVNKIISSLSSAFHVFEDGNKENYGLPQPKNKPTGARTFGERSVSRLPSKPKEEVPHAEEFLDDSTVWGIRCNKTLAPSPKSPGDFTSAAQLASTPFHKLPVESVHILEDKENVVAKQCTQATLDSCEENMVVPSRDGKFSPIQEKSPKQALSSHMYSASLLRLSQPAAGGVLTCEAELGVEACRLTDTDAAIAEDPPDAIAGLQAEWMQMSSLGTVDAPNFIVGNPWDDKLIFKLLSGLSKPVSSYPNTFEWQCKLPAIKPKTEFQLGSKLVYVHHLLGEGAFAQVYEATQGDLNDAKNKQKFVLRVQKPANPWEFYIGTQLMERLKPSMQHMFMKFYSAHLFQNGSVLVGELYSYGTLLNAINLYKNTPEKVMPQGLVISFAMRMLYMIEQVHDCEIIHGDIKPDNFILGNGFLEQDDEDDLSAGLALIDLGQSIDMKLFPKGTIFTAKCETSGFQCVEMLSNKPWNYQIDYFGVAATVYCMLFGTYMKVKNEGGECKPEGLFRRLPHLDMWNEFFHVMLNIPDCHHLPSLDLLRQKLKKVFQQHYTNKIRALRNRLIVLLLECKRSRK
Described as above.

As to Bub3 (from UniProt O43684 1-328), the binding result in experiment [1] and in experiment [2] was “binds” in each case.
